Laboratory results from patent publication US20200199196A1 (WASHINGTON UNIVERSITY, published 2020).
No constants are given. Whether binding was seen depends on the method and setting. Some binding calls cover weakened binding; strength is not graded here.

B1: WT-SM htRANKL (homotrimeric mouse RANKL with the solubility mutations C220S/I246E) (ligand)
chain: QPFAHLTINAASIPSGSHKVTLSSWYHDRGWAKISNMTLSNGKLRVNQDGFYYLYANISFRHHETSGSVPTDYLQLMVYVVKTSEKIPSSHNLMKGGSTKNWSGNSEFHFYSINVGGFFKLRAGEEISIQVSNPSLLDPDQDATYFGAFKVQDID
notes: The format differs by assay; also called WT-SM RANKL; WT htRANKL
B2: KQFH htRANKL (K194E, Q236H, F269Y, H270Y) (ligand)
chain: QPFAHLTINAASIPSGSHKVTLSSWYHDRGWAEISNMTLSNGKLRVNQDGFYYLYANISFRHHETSGSVPTDYLHLMVYVVKTSEKIPSSHNLMKGGSTKNWSGNSEYYFYSINVGGFFKLRAGEEISIQVSNPSLLDPDQDATYFGAFKVQDID
notes: also called RANK^high variant

Key:
[1] = target: T1, monomeric RANK (monomeric fragment of RANK) (UniProt O35305); test: SPR (FIG. 5A)
T1 sequence (looked up): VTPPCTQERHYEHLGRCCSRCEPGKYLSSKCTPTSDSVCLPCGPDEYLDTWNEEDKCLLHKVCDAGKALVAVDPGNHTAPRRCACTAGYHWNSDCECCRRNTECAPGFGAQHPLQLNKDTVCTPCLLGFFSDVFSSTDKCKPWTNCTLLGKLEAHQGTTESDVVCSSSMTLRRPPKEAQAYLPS

[2] = target: T1, monomeric RANK (monomeric fragment of RANK); test: yeast surface display, titration with RANK (FIG. 3B)

Binder	binding [1]	binding [2]
B1	binds	–
B2	–	binds
